For at least one entry, the source does not settle the construct or the ends of the probe. The comparison behind a weaker result is the experiment's own reference, which may not be listed here. Tags and fusion partners may be left off the protein sequences shown.

The target of the data set is T1, NF-kB p50 (UniProt P19838).
T1 sequence (looked up, limits assumed): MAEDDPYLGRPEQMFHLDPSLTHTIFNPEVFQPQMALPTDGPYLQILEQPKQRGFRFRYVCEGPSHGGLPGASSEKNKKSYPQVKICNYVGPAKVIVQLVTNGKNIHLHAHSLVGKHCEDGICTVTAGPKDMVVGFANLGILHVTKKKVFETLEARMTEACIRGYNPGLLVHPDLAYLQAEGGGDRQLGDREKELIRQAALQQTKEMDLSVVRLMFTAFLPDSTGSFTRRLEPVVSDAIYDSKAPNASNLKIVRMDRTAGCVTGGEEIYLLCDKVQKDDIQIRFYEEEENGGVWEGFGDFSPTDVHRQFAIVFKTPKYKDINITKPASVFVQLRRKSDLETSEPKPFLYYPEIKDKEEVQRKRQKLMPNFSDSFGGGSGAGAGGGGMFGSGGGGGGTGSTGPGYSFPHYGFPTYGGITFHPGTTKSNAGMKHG
The data set can be described thus: EMSA. To be noted: lower affinity than the 3' C probe; 1x DBB (from 5x): 10 mM Tris-HCl pH 7.5, 50 mM NaCl, 0.5 mM EDTA, 3 mM MgCl2, 1% glycerol, 0.5 mg/ml BSA, 0.05% NP-40, 0.01 mM DTT; room temperature 60 min; commercial protein; label: biotin at ends.

On to “AGTTGAGGGGACTTTCCTAGGC (double strand) [probe a (GGGACTTTCCT)]”, for which the binding result was “binds more weakly”.

For the origin of these results see publication PMC3794954, “An Improved SELEX-Seq Strategy for Characterizing DNA-Binding Specificity of Transcription Factor: NF-κB as an Example”.
